Results deposited as PubChem BioAssay AID1259405 (NCATS, 2018)
Here is one part, drawn at random, of about 50,000 deposited reagents. About 4,000 of them (8%) were called active. 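Mouse siRNA library applied to hamster cells; one well for each siRNA.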 The numbers tell different reagents against one gene apart.

Screen: 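Silenced genes that increase secreted GFP made by CHO cells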 (primary screen)
Cells: Chinese hamster CHO-K1 ovary cells with stable secreted eGFP expression
Knock-down reagent: single siRNA against mouse genes, 0.8 pmol siRNA per well (2 µl of 400 nM stock)
Time to read-out: 3 days
Measured: 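Percent of the per-plate non-targeting control median for intracellular GFP per well by laser scanning cytometry and for cell viability by ATP luminescence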
Direction: GFP, % of control: higher = more GFP per well, higher productivity; viability (ATP), % of control: higher = more viable cells (more ATP)
Hit rule: 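Called active when intracellular GFP, relative to negative control, is at or above 120%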

no.	gene	siRNA no.	GFP, % of control	viability (ATP), % of control	Call
1	Clec4d	1	36.1	36.9	inactive
2	Clec4d	2	88.2	78.6	inactive
3	Clec4d	3	67.7	77.3	inactive
4	9430077A04Rik	1	31.9	38.1	inactive
5	9430077A04Rik	2	44.6	69.1	inactive
6	9430077A04Rik	3	80	94	inactive
7	Lhfpl6	1	99.5	55.8	inactive
8	Lhfpl6	2	99.6	74.5	inactive
9	Lhfpl6	3	88.5	81.6	inactive
10	Rnf26	1	63.7	64	inactive
11	Rnf26	2	79.3	77.4	inactive
12	Rnf26	3	94.2	119	inactive
13	Kdm4b	1	44.4	68.3	inactive
14	Kdm4b	2	88.2	88.7	inactive
15	Kdm4b	3	58.1	82.6	inactive
16	B9d2	1	75.5	61.5	inactive
17	B9d2	2	102	100	inactive
18	B9d2	3	105	115	inactive
19	Nit1	1	85.9	75.9	inactive
20	Nit1	2	79.4	50.3	inactive
21	Nit1	3	130	114	active
22	Edf1	1	84.8	85.2	inactive
23	Edf1	2	164	144	active
24	Edf1	3	111	97.9	inactive
25	Edf1	4	104	89.3	inactive
26	Edf1	5	91.4	105	inactive
27	Or2y1	1	95.7	76.7	inactive
28	Or2y1	2	76.7	69.6	inactive
29	Or2y1	3	56.3	77	inactive
30	Lamtor3	1	64.8	70.8	inactive
31	Lamtor3	2	58.7	42.6	inactive
32	Lamtor3	3	85.4	49	inactive
33	Chrm5	1	93.1	76.5	inactive
34	Chrm5	2	71.3	60.3	inactive
35	Chrm5	3	66.8	50.9	inactive
36	Tfdp1	1	94.9	91	inactive
37	Tfdp1	2	95.3	77.4	inactive
38	Fgfbp1	1	53.7	68.5	inactive
39	Fgfbp1	2	82.4	80.9	inactive
40	Fgfbp1	3	116	49.1	inactive
41	Syne2	1	120	92.7	active
42	Syne2	2	83.9	84.9	inactive
43	Syne2	3	95.7	110	inactive
44	Tas2r109	1	38.8	55.7	inactive
45	Tas2r109	2	124	93.9	active
46	Tas2r109	3	81.8	140	inactive
47	Trim35	1	45.2	30.2	inactive
48	Trim35	2	105	119	inactive
49	Trim35	3	103	108	inactive
50	Uty	1	57.5	62.3	inactive
51	Uty	2	59.4	72.1	inactive
52	Uty	3	86.5	109	inactive
53	Smad1	1	35.9	25.9	inactive
54	Smad1	2	62.3	72.4	inactive
55	Smad1	3	120	84.1	inactive
56	Crygn	1	112	89.2	inactive
57	Crygn	2	43.1	62.9	inactive
58	Crygn	3	119	108	inactive
59	Klhl13	1	79.8	89.4	inactive
60	Klhl13	2	86.3	74.8	inactive
61	Klhl13	3	79.9	91.4	inactive
62	Ago2	1	99	122	inactive
63	Ago2	2	64.9	70.1	inactive
64	Ago2	3	73.5	79.4	inactive
65	Eif2ak4	1	101	102	inactive
66	Eif2ak4	2	51.2	33.3	inactive
67	Eif2ak4	3	69.2	96.1	inactive
68	BC048671	1	41.9	29.8	inactive
69	BC048671	2	89.8	84	inactive
70	BC048671	3	118	85.3	inactive
71	Taf7	1	79.5	82.2	inactive
72	Taf7	2	70.2	82.7	inactive
73	Taf7	3	71.7	86.2	inactive
74	Ms4a8a	1	100	109	inactive
75	Ms4a8a	2	80.2	66.1	inactive
76	Ms4a8a	3	74.9	75.9	inactive
77	Tcstv1a	1	92.3	153	inactive
78	Tcstv1a	2	73.7	94.3	inactive
79	Tcstv1a	3	143	127	active
80	Il20ra	1	120	106	active
81	Il20ra	2	83.7	90	inactive
82	Il20ra	3	50.9	59.8	inactive
83	4933440M02Rik	1	106	75.5	inactive
84	4933440M02Rik	2	101	109	inactive
85	4933440M02Rik	3	78.6	102	inactive

14 consecutive records already listed, for reference:
no.	gene	siRNA no.	GFP, % of control	viability (ATP), % of control	Call
54	Smad1	2	62.3	72.4	inactive
55	Smad1	3	120	84.1	inactive
56	Crygn	1	112	89.2	inactive
57	Crygn	2	43.1	62.9	inactive
58	Crygn	3	119	108	inactive
59	Klhl13	1	79.8	89.4	inactive
60	Klhl13	2	86.3	74.8	inactive
61	Klhl13	3	79.9	91.4	inactive
62	Ago2	1	99	122	inactive
63	Ago2	2	64.9	70.1	inactive
64	Ago2	3	73.5	79.4	inactive
65	Eif2ak4	1	101	102	inactive
66	Eif2ak4	2	51.2	33.3	inactive
67	Eif2ak4	3	69.2	96.1	inactive
